According to patent publication US20080279844A1:
No constants are given. Whether binding was seen depends on the method and setting. For some assays here: In cells and extracts the contact can be indirect. Some entries that bind do so weakly or less than the wild type.

Chains of the proteins cited; added tags and fusions are not shown. Residues count along the entry.
UniProt Q04206: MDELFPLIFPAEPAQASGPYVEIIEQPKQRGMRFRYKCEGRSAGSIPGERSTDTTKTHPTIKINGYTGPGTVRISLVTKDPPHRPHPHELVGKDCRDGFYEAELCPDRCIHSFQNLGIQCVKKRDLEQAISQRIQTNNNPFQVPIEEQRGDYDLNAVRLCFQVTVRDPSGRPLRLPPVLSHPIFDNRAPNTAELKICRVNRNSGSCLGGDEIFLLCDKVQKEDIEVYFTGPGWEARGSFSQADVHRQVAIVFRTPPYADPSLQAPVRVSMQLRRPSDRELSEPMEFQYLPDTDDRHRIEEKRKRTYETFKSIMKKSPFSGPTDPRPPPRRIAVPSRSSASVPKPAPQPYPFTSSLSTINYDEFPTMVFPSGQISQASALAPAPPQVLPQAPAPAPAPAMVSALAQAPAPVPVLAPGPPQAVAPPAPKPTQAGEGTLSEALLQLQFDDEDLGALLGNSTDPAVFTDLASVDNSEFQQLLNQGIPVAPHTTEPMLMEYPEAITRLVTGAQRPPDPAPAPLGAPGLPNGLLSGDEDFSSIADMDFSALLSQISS
UniProt P18084, residues 24-799: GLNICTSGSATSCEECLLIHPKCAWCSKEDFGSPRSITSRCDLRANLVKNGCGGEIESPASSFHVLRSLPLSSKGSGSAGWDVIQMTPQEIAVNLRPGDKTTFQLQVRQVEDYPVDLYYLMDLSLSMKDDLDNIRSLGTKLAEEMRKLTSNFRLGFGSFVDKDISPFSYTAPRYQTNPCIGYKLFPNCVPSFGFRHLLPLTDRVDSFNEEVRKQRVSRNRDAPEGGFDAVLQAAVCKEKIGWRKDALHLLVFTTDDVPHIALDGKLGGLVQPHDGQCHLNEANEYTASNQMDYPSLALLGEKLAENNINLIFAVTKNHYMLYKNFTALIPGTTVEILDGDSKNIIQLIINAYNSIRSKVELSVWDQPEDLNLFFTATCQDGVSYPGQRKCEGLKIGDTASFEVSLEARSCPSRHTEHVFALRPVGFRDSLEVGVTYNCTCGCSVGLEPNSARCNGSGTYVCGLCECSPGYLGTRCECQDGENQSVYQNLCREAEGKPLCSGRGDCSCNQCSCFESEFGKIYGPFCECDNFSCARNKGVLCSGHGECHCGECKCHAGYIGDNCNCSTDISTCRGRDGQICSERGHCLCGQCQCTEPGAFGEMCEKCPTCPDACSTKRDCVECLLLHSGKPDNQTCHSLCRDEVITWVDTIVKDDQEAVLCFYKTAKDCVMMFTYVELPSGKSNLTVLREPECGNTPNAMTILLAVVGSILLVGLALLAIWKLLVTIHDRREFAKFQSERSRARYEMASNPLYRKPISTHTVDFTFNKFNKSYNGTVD
UniProt P16144, residues 28-1822: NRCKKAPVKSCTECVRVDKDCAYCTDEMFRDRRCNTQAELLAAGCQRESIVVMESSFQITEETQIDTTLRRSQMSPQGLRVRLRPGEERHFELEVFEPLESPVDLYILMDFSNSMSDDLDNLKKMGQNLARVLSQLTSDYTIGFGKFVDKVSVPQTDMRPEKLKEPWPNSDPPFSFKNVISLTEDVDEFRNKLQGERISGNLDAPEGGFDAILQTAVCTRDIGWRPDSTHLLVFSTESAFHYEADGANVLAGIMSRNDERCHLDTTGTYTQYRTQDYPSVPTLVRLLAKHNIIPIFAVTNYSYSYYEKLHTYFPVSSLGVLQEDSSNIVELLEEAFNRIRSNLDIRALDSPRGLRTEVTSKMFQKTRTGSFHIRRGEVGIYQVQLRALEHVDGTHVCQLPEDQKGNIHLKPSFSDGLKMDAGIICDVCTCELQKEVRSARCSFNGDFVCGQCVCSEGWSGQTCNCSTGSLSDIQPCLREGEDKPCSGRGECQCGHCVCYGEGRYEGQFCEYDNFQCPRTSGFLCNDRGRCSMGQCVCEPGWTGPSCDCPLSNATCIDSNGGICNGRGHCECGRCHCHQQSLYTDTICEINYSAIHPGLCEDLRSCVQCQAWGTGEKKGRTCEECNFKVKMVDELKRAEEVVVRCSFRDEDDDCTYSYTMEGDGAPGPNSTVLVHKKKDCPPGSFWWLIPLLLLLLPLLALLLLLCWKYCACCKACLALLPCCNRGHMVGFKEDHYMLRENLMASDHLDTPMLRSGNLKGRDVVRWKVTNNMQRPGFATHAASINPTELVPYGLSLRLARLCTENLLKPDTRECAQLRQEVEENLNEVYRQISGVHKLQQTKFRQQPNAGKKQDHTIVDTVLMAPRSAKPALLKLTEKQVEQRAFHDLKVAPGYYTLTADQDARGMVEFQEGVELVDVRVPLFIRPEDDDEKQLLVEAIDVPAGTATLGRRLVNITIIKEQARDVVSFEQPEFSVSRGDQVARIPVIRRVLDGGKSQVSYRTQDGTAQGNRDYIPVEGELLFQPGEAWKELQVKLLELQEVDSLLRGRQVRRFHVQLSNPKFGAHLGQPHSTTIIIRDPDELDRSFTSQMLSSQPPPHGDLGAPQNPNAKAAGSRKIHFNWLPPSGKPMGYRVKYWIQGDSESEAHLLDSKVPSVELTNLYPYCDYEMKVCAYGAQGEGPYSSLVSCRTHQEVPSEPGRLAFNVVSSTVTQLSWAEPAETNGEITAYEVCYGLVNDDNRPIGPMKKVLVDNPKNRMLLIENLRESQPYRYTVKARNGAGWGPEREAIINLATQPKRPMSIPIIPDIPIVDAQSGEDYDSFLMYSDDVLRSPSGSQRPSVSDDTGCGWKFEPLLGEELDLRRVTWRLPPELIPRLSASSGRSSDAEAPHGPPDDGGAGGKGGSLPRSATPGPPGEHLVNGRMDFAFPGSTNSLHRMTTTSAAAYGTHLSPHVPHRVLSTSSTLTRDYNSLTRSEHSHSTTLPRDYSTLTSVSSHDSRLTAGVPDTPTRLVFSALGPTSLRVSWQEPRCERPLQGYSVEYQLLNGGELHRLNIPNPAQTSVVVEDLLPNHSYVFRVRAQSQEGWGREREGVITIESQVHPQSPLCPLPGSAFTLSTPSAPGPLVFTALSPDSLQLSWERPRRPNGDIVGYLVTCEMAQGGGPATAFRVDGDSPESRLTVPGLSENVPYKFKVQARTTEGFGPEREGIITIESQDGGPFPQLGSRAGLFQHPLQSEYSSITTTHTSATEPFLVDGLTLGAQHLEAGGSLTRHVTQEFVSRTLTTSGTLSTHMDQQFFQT
UniProt P05556: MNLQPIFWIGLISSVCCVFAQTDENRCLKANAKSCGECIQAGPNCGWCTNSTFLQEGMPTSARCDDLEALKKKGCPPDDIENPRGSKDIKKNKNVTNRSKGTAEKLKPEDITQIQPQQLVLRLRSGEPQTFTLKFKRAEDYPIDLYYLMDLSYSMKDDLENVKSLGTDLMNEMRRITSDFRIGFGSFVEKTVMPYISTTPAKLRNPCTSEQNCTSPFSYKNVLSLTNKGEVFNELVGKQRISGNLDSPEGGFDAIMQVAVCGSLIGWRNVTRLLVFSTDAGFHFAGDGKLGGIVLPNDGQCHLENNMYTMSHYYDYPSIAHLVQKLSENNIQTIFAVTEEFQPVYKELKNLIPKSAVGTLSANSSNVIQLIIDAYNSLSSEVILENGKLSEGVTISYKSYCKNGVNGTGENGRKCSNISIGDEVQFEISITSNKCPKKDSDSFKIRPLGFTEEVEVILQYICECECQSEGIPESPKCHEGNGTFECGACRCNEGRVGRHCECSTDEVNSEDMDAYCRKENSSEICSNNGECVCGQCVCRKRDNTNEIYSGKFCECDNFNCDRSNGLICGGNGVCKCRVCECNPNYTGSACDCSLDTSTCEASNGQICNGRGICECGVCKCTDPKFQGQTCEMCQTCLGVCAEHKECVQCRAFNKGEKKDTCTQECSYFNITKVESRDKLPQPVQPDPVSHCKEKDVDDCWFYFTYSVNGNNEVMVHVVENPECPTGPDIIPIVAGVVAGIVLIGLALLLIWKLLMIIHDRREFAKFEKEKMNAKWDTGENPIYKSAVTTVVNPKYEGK
UniProt Q05397, residues 2-1052: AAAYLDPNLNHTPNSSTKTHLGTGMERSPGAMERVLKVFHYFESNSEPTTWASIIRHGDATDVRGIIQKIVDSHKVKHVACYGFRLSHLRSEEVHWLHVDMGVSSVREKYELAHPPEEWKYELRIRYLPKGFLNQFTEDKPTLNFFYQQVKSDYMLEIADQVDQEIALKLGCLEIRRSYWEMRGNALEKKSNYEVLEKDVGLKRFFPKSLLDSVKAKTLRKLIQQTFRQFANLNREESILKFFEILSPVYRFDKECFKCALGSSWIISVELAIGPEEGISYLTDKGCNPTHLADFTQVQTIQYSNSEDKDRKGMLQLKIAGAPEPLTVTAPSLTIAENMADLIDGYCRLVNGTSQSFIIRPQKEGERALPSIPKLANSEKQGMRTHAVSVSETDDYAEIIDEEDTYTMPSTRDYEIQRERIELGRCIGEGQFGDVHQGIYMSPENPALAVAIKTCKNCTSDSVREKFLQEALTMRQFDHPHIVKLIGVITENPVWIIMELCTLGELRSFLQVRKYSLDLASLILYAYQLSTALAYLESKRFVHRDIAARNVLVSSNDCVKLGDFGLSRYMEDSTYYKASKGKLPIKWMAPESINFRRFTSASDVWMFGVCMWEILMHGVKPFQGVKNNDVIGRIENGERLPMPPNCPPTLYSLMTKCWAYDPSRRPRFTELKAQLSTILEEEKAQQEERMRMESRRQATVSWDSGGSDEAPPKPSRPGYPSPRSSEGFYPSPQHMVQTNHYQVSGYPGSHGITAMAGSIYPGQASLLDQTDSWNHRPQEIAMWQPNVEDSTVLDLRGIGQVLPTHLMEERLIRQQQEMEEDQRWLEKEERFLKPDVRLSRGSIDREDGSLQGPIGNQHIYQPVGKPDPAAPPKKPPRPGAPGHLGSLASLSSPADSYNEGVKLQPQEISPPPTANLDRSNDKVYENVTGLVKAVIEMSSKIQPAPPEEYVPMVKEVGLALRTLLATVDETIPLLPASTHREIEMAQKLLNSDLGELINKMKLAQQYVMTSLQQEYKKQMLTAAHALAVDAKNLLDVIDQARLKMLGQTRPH

How the values were obtained:
[1] = target: p65 subunit of NF-κB (human) (UniProt Q04206); test: confocal microscopy (figure legend)
integrin β5 (human) [2] = target: integrin β5 (human) (UniProt P18084); test: co-immunoprecipitation (figure legend)
integrin β4 (human) [3] = target: integrin β4 (human) (UniProt P16144); test: co-immunoprecipitation from MDA231/cl.16 lysate
integrin β1 (human) [4] = target: integrin β1 (human) (UniProt P05556); test: co-immunoprecipitation (discussion of Example 1)
integrin β4 (human) [5] = target: integrin β4 (human) (UniProt P16144); test: co-immunoprecipitation (discussion of Example 1)
integrin β5 (human) [6] = target: integrin β5 (human) (UniProt P18084); test: co-immunoprecipitation (discussion of Example 1)
[7] = target: p65 subunit of NF-κB (human) (UniProt Q04206); test: confocal microscopy of Panc28 cells (discussion of Example 4)
integrin β1 (human) [8] = target: integrin β1 (human) (UniProt P05556); test: co-immunoprecipitation and confocal microscopy (figure legend)
[9] = target: p65 subunit of NF-κB (human) (UniProt Q04206); test: co-immunoprecipitation with anti-TG2 antibody; confocal colocalization of TG2 with p65
integrin β1 (human) [10] = target: integrin β1 (human) (UniProt P05556); test: co-immunoprecipitation with anti-β1 integrin antibody from MDA-MB231 lysates, anti-TG2 immunoblot; confocal colocalization
integrin β5 (human) [11] = target: integrin β5 (human) (UniProt P18084); test: co-immunoprecipitation with anti-β5 integrin antibody from MDA-MB231 lysates, anti-TG2 immunoblot; confocal colocalization
[12] = target: focal adhesion kinase (FAK) (human) (UniProt Q05397); test: adenoviral expression in BxPC-3 cells; Western blot and confocal microscopy
[13] = target: p65 subunit of NF-κB (human), Q04206; test: co-immunoprecipitation from Panc28 cytosolic extracts (figure legend); conditions: remark: other sources report otherwise
[14] = target: p65 subunit of NF-κB (human), Q04206; test: co-immunoprecipitation with anti-IκBα antibody from Panc28 cytoplasmic extracts; conditions: remark: other sources report otherwise

Measured: binding

B1: Tissue transglutaminase (TG2, EC 2.3.2.13) (enzyme, human, UniProt P21980 2-687, looked up)
chain: AEELVLERCDLELETNGRDHHTADLCREKLVVRRGQPFWLTLHFEGRNYEASVDSLTFSVVTGPAPSQEAGTKARFPLRDAVEEGDWTATVVDQQDCTLSLQLTTPANAPIGLYRLSLEASTGYQGSSFVLGHFILLFNAWCPADAVYLDSEEERQEYVLTQQGFIYQGSAKFIKNIPWNFGQFEDGILDICLILLDVNPKFLKNAGRDCSRRSSPVYVGRVVSGMVNCNDDQGVLLGRWDNNYGDGVSPMSWIGSVDILRRWKNHGCQRVKYGQCWVFAAVACTVLRCLGIPTRVVTNYNSAHDQNSNLLIEYFRNEFGEIQGDKSEMIWNFHCWVESWMTRPDLQPGYEGWQALDPTPQEKSEGTYCCGPVPVRAIKEGDLSTKYDAPFVFAEVNADVVDWIQQDDGSVHKSINRSLIVGLKISTKSVGRDEREDITHTYKYPEGSSEEREAFTRANHLNKLAEKEETGMAMRIRVGQSMNMGSDFDVFAHITNNTAEEYVCRLLLCARTVSYNGILGPECGTKYLLNLNLEPFSEKSVPLCILYEKYRDCLTESNLIKVRALLVEPVINSYLLAERDLYLENPEIKIRILGEPKQKRKLVAEVSLQNPLPVALEGCTFTVEGAGLTEEQKTVEIPDPVEAGEEVKVRMDLLPLHMGLHKLVVNFESDKLKAVKGFRNVIIGPA
binds: [1] | integrin β5 (human) [2] | integrin β4 (human) [3] | integrin β1 (human) [4] | integrin β4 (human) [5] | integrin β5 (human) [6] | [7] | integrin β1 (human) [8] | [9] | integrin β1 (human) [10] | integrin β5 (human) [11]

B2: C277S mutant TG2 (TG2m) (enzyme, UniProt P21980 2-687, looked up)
chain: AEELVLERCDLELETNGRDHHTADLCREKLVVRRGQPFWLTLHFEGRNYEASVDSLTFSVVTGPAPSQEAGTKARFPLRDAVEEGDWTATVVDQQDCTLSLQLTTPANAPIGLYRLSLEASTGYQGSSFVLGHFILLFNAWCPADAVYLDSEEERQEYVLTQQGFIYQGSAKFIKNIPWNFGQFEDGILDICLILLDVNPKFLKNAGRDCSRRSSPVYVGRVVSGMVNCNDDQGVLLGRWDNNYGDGVSPMSWIGSVDILRRWKNHGCQRVKYGQSWVFAAVACTVLRCLGIPTRVVTNYNSAHDQNSNLLIEYFRNEFGEIQGDKSEMIWNFHCWVESWMTRPDLQPGYEGWQALDPTPQEKSEGTYCCGPVPVRAIKEGDLSTKYDAPFVFAEVNADVVDWIQQDDGSVHKSINRSLIVGLKISTKSVGRDEREDITHTYKYPEGSSEEREAFTRANHLNKLAEKEETGMAMRIRVGQSMNMGSDFDVFAHITNNTAEEYVCRLLLCARTVSYNGILGPECGTKYLLNLNLEPFSEKSVPLCILYEKYRDCLTESNLIKVRALLVEPVINSYLLAERDLYLENPEIKIRILGEPKQKRKLVAEVSLQNPLPVALEGCTFTVEGAGLTEEQKTVEIPDPVEAGEEVKVRMDLLPLHMGLHKLVVNFESDKLKAVKGFRNVIIGPA
binds: [12]

B3: IκBα, P25963 1-317 (protein, human, UniProt P25963 1-317, looked up)
chain: MFQAAERPQEWAMEGPRDGLKKERLLDDRHDSGLDSMKDEEYEQMVKELQEIRLEPQEVPRGSEPWKQQLTEDGDSFLHLAIIHEEKALTMEVIRQVKGDLAFLNFQNNLQQTPLHLAVITNQPEIAEALLGAGCDPELRDFRGNTPLHLACEQGCLASVGVLTQSCTTPHLHSILKATNYNGHTCLHLASIHGYLGIVELLVSLGADVNAQEPCNGRTALHLAVDLQNPDLVSLLLKCGADVNRVTYQGYSPYQLTWGRPSTRIQQQLGQLTLENLQMLPESEDEESYDTESEFTEFTEDELPYDDCVFGGQRLTL
binds: [13] | [14]
